Experimental findings from US20250346630A1, “Engineering Peptides Using Peptide Epitope Linker Evolution” (AGENCY FOR SCIENCE, TECHNOLOGY AND RESEARCH, priority 2022, published 2025) are described below.

Results are given in words; binding and its absence hold for the method and conditions named.

The target in one assay is KRas. Description: M13 linear 12mer phage selection on the control protein, NGS abundance heat map [CONT.) D].
The target in another assay is MDM2. The description is as above.

Turning to SLTYTREFLRSL […], the binding result with KRas and with MDM2 was “no binding” throughout.
